This passage reports binding results from publication PMC10424845, “Gelsevirine is a novel STING-specific inhibitor and mitigates STING-related inflammation in sepsis” (Frontiers in Immunology, 2023).

Amino acid sequences for entries named in this document (tags omitted).
UniProt Q86WV6: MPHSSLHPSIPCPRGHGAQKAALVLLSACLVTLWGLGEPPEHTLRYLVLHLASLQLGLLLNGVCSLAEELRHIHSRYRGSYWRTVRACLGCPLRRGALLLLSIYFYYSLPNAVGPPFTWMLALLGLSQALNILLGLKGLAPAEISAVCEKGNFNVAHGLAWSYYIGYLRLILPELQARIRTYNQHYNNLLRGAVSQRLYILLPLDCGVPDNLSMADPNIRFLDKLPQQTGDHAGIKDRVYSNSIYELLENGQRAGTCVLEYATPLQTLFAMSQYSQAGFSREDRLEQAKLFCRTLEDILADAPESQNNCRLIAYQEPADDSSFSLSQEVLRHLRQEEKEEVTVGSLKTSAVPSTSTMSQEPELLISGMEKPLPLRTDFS
UniProt P19474: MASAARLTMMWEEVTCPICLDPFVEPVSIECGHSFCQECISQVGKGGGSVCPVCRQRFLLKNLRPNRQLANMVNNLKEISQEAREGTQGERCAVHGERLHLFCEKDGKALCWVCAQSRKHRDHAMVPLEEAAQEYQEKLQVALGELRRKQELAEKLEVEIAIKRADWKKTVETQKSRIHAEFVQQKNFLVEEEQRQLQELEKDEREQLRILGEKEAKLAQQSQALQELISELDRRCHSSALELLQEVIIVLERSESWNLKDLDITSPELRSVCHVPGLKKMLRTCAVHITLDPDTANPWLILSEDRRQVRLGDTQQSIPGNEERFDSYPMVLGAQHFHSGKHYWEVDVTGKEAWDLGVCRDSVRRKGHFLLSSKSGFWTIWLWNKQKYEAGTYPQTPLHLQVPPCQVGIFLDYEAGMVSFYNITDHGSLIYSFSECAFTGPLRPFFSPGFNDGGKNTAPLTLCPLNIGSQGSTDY

The test deals with HA-tagged human STING (STING-HA) (human) (UniProt Q86WV6). The test is described as follows: co-IP; HEK293T cells transfected with STING-HA for 24 hrs, with or without GS (10 μM) for 2 hrs; RIPA lysates incubated with antibodies for 12 hrs at 4°C, protein G agarose beads, immunoblot. (Immunoblotting shows a protein as a band on a membrane.)

These are yes or no findings as the source states them, for the method shown. In cells and extracts the contact can be indirect. Some results given as binding are weak or reduced against the parent protein; the word gives no strength.

Consider TRIM21 (from UniProt P19474 1-475), for which the binding result was “binds”.
